In PubChem BioAssay AID1671190 (National Center for Advancing Translational Sciences (NCATS), 2021):
The campaign covered roughly 580,000 compounds. About 6,100 (1.1%) were called active. The inconclusive results got no clear call from the source; some entries with a clear call stand among them for comparison. Calls come from the whole dose curve; as a rule, active = well fitted inhibition curve with a large enough effect; inconclusive = small, poorly fitted or top-dose-only effect, or another doubt; inactive = no such curve, though single readings can be large or run the other way. A potency beside an inconclusive call is a rough fit, not a confirmed value. Some compounds were tested as several samples or in several runs, with calls that do not always agree.

Amino acid sequences for entries named in this document (tags omitted). A change or cut given only in a name is not applied to a line headed by its entry.
UniProt P18054: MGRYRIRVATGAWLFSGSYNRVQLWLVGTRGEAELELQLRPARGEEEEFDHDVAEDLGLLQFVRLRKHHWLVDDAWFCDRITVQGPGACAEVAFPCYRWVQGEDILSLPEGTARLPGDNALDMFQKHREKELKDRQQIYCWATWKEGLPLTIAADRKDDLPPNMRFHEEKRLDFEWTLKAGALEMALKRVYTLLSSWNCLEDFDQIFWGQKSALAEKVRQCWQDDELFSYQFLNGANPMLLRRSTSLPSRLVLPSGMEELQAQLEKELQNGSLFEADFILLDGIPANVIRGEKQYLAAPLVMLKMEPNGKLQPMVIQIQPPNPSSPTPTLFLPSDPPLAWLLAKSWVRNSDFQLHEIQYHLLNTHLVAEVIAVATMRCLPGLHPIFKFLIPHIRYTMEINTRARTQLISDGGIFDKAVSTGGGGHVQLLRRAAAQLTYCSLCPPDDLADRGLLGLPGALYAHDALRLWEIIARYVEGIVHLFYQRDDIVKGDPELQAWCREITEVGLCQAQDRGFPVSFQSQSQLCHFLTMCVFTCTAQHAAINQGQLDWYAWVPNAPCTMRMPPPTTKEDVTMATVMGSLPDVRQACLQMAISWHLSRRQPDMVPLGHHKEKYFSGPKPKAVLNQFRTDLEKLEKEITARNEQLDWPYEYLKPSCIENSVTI

These compounds were tested against Polyunsaturated fatty acid lipoxygenase ALOX12 (Homo sapiens) (UniProt P18054) (assay: Primary qHTS assay for inhibitors of human arachidonate 12S-lipoxygenase (ALOX12): Round 2). Conditions: purified 12hLO, xylenol orange hydroperoxide absorbance; activity change, negative = inhibition: at 108 µM (top of the series) unless noted.
Procedure, shortened: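 Purified human 12hLO (150 nM final) in 25 mM Hepes, 0.01% Triton X-100, pH 7.0 was preincubated 15 min at room temperature with compound. Then 40 uM arachidonic acid was added, 30 min. Hydroperoxide was read by Fe-XO absorbance ratio 573/405 nm.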
% is set by controls: 0 for no effect and ±100 for the full control effect; potency is the fitted concentration of half-maximal effect.

| Compound | Potency | activity change, negative = inhibition |
| --- | --- | --- |
| Cc1nn(CCc2n[nH]c(=S)n2-c2ccc(F)cc2)c(C)c1[N+](=O)[O-] | inconclusive: 100 µM [inhibitor, partial curve, poor fit] |  |
| CCOC(C)C(=O)Nc1ccc2c(c1)NC(=O)CS2 (configuration not stated) | inconclusive: 39.8 µM [inhibitor, partial curve] |  |
| COc1ccc(/C=C/C(=O)c2cccs2)cc1O | inconclusive: 6.31 µM [inhibitor, full curve, poor fit] |  |
| CCc1nc2c(OCc3cc(Cl)cc(Cl)c3)cccn2c1N(C)C(=O)c1ccc(OC)cc1 | inconclusive: 79.4 µM [inhibitor, partial curve, poor fit] |  |
| CCc1c(C)sc(NC(=O)/C=C/C(=O)O)c1C#N | inconclusive: 44.7 µM [inhibitor, partial curve, poor fit] |  |
| Cc1ccc2nc(-c3ccco3)cc(C(=O)O)c2c1 | active: 7.94 µM |  |
| Cc1cccc(-c2cc(C(=O)O)c3cccc(Cl)c3n2)c1 | inconclusive: 44.7 µM [inhibitor, partial curve, poor fit] |  |
| Cc1ccc2oc(=O)c3cc(C(=O)NCCCN4CC(C)CC(C)C4)sc3c2c1 (configuration not stated) |  | inactive: 19.1% |
| CN(CCO)C(=O)c1cn(C2CCN(Cc3ccc4ccccc4c3)CC2)nn1 | inconclusive: 141 µM [inhibitor, single point] |  |
| O=C(CS(=O)(=O)Cc1ccccc1)Nc1nc2c(s1)CCCC2 | inconclusive: 28.2 µM [inhibitor, partial curve, poor fit] |  |
| CCC(=O)NCCNc1nc2cc(C)cc(C)c2cc1C#N | inconclusive: 100 µM [inhibitor, partial curve, poor fit] |  |
| COc1ccc(-c2ccc3nnc(CNC(=O)c4cccc(NC(C)=O)c4)n3n2)cc1 | inconclusive: 44.7 µM [inhibitor, partial curve] |  |
| O=C(O)CSc1nnc(CSc2nc3ccccc3s2)n1-c1ccccc1 |  | inactive: 0% |
| COc1ccc([C@H]2CN(Cc3ccccc3)C(=O)[C@@H]2CC(=O)Nc2ccccc2)cc1 | inconclusive: 39.8 µM [inhibitor, single point] |  |
| C[C@@H]1CN([C@H](C)CO)C(=O)c2cc(NC(=O)Nc3ccc(F)cc3)ccc2O[C@@H](C)CCCCO[C@H]1CN(C)S(=O)(=O)c1ccc(Cl)cc1 | inconclusive: 100 µM [inhibitor, single point] |  |
| CC(C)c1ccc(NC(=O)NC(=O)C(F)(F)F)cc1 | inconclusive: 44.7 µM [inhibitor, partial curve, poor fit] |  |
| Cc1nc(-c2cnn(-c3ccccc3)c2)c2cc(C)oc2n1 |  | inactive: 3.51% |
| CCc1nc2c(cnn2-c2ccc(Cl)cc2)c(=O)n1-c1ccc(OC)c(Cl)c1 | inconclusive: 6.31 µM [inhibitor, full curve, poor fit] |  |
| Oc1ccc(Cl)cc1C=Nc1cc(C(F)(F)F)ccc1Oc1ccc(Cl)cc1 | inconclusive: 39.8 µM [inhibitor, partial curve] |  |
| CCC(=O)N(C1CCOCC1)C1CCN(S(=O)(=O)c2ccc(F)c(F)c2)CC1 |  | inactive: 24.9% |
| CCCCCCCCCCCCN1[C@@H](CC(C)=O)c2cc(F)ccc2S1(=O)=O | inconclusive: 44.7 µM [inhibitor, partial curve, poor fit] |  |

Ordered by SMILES length (largest number first): 9 of the compounds above

| Compound | Potency | activity change, negative = inhibition |
| --- | --- | --- |
| COc1ccc([C@H]2CN(Cc3ccccc3)C(=O)[C@@H]2CC(=O)Nc2ccccc2)cc1 | inconclusive: 39.8 µM [inhibitor, single point] |  |
| CCc1nc2c(OCc3cc(Cl)cc(Cl)c3)cccn2c1N(C)C(=O)c1ccc(OC)cc1 | inconclusive: 79.4 µM [inhibitor, partial curve, poor fit] |  |
| COc1ccc(-c2ccc3nnc(CNC(=O)c4cccc(NC(C)=O)c4)n3n2)cc1 | inconclusive: 44.7 µM [inhibitor, partial curve] |  |
| CCc1nc2c(cnn2-c2ccc(Cl)cc2)c(=O)n1-c1ccc(OC)c(Cl)c1 | inconclusive: 6.31 µM [inhibitor, full curve, poor fit] |  |
| Cc1ccc2oc(=O)c3cc(C(=O)NCCCN4CC(C)CC(C)C4)sc3c2c1 (configuration not stated) |  | inactive: 19.1% |
| CCCCCCCCCCCCN1[C@@H](CC(C)=O)c2cc(F)ccc2S1(=O)=O | inconclusive: 44.7 µM [inhibitor, partial curve, poor fit] |  |
| Oc1ccc(Cl)cc1C=Nc1cc(C(F)(F)F)ccc1Oc1ccc(Cl)cc1 | inconclusive: 39.8 µM [inhibitor, partial curve] |  |
| O=C(O)CSc1nnc(CSc2nc3ccccc3s2)n1-c1ccccc1 |  | inactive: 0% |
| Cc1cccc(-c2cc(C(=O)O)c3cccc(Cl)c3n2)c1 | inconclusive: 44.7 µM [inhibitor, partial curve, poor fit] |  |

Next part.

| Compound | Potency | activity change, negative = inhibition |
| --- | --- | --- |
| Cc1ccccc1CNC(=O)c1ccc(CS(=O)Cc2ccc(Cl)cc2)o1 (configuration not stated) |  | inconclusive: -34.6% [inhibitor] |
| CNC(=S)N/N=C1\CC(c2ccccc2)Oc2ccccc21 (configuration not stated) | active: 39.8 µM |  |
| CNc1nc(Nc2ccc([N+](=O)[O-])cc2)nc(OCC(F)(F)F)n1 | inconclusive: 20 µM [inhibitor, partial curve, poor fit] |  |
| O=S(=O)(Nc1ccc(O)c2ccccc12)c1ccc(F)cc1 | inconclusive: 5.01 µM [inhibitor, full curve, poor fit] |  |
| O=C(CC1SC(=O)N(c2ccccc2)C1=O)Nc1ccccc1 (configuration not stated) |  | inactive: 0% |
| CCCC(=O)OCC(=O)c1ccc(-c2ccccc2)cc1 | inconclusive: 100 µM [inhibitor, partial curve, poor fit] |  |
| COC(=O)COc1cccc(NC(=O)c2ccc(C)cc2)c1 |  | inconclusive: -33.2% [inhibitor] |
| COCc1nnc(SCC(=O)Nc2cccc(Cl)c2C)n1-c1ccccc1 | inconclusive: 100 µM [inhibitor, single point] |  |
| CCOc1ccc(S(=O)(=O)n2ccnc2)cc1C(C)(C)C |  | inactive: 16.1% |
| CN(C)c1ccc(C2Nc3ccccc3C(=O)N2NS(=O)(=O)c2ccccc2)cc1 (configuration not stated) | inconclusive: 11.2 µM [inhibitor, full curve, poor fit] |  |
| CCc1ccc(S(=O)(=O)N2c3ccc(C)cc3C3CN(C)CCC32)cc1 (configuration not stated) | inconclusive: 100 µM [inhibitor, single point] |  |
| CN(Cc1ccccc1)c1ncccc1CNC(=O)CN1CCOC1=O |  | inactive: 40.6% |
| CCCOc1cccc(C(=O)NC(=S)Nc2cccc(NC(=O)c3ccccc3Cl)c2)c1 | active: 12.6 µM |  |
| Cc1nc2c(OCc3ccc(Cl)cc3)cccn2c1N(C)C(=O)CCC1CCCC1 | inconclusive: 44.7 µM [inhibitor, partial curve, poor fit] |  |
| O=C(c1ccc(Oc2ccc([N+](=O)[O-])cc2Cl)cc1)N1CCCC1 |  | inactive: -6.52% |
| CCOc1ccc(S(=O)(=O)N2CCCCC2)cc1NC(=O)Cc1n[nH]c(=O)c2ccccc12 | inconclusive: 112 µM [inhibitor, single point] |  |
| Cc1ccccc1N(C)C1CN(Cc2ccccc2)C1 | inconclusive: 10 µM [inhibitor, full curve] |  |
| CCOc1ccc(NC(=O)c2cc(=O)c3c(C)cc(C)cc3o2)cc1 |  | inactive: 13.1% |
| O=C(C[C@H]1C[C@H](C(=O)N2CCCCC2)[C@@]2(CCc3ccccc3)c3[nH]c4ccc(Cl)cc4c3CCN2C1=O)NCCC1=CCCCC1 |  | inactive: 1.84% |
| O=C(COc1ccccc1[N+](=O)[O-])Nc1ccc(N2CCN(C(=O)c3cccs3)CC2)cc1 |  | inactive: 351% |
| COc1ccc(Cn2cc(-c3ccc(F)c(C(N)=O)c3)cn2)cc1 | inconclusive: 56.2 µM [inhibitor, partial curve, poor fit] |  |
